Test results taken from paper PMC12670160, “A drug-repurposing screen of FDA- and EMA-approved drugs identifies two NF-κB inhibitors active against eumycetoma” (Journal of Antimicrobial Chemotherapy, 2025).
Counter-ions that a name gives are not always drawn. The campaign covered roughly 5,300 compounds. About 130 (2.5%) showed an effect of 50% or more. The list shows a part of the results.

tested on: M. mycetomatis strain mm55; conditions: primary screen, metabolic activity vs growth control; 96 h, 2 µM; inhibitor

| Structure (SMILES) | % viability [%] |
| --- | --- |
| N#CC(Cc1ccc(O)cc1)c1ccc(O)cc1 (stereo not drawn) [ONC0001690, diarylpropionitrile] | 57.89 |
| O=C1NC(=O)[C@@]2(CCOc3ccc(F)cc32)N1 [ONC0001971, sorbinil] | 115 |
| Nc1nc(F)nc2c1ncn2[C@@H]1O[C@H](CO)[C@@H](O)[C@@H]1O [ONC0000009, fludarabine] | 119.4 |
| CCCc1ccc(C(=O)O)cc1 [ONC0002961] | 146 |
| C#C[C@]1(OC(=O)CCCCCC)CC[C@H]2[C@@H]3CCC4=CC(=O)CC[C@@H]4[C@H]3CC[C@@]21C [ONC0000267, norethisterone enanthate] | 63.38 |
| CN(C)Cc1c(C(=O)NCCOc2ccc(C(=O)NO)cc2)oc2ccccc12 [ONC0004673, abexinostat pci24781] | 85.86 |
| CCN(CC)CCN1C(=O)C(=Cc2ccc(OC)cc2)Nc2ccccc21 [ONC0005609, caroverine] | 42.25 |
| CC(C)NCC(O)COc1ccc(COCCOC(C)C)cc1 (stereo not drawn) [ONC0004061, bisoprolol fumarate] | 123.8 |
| COCCN1CCN(Cc2ccc(-c3n[nH]c4c3C(=O)c3c(NC(=O)NN5CCOCC5)cccc3-4)cc2)CC1 [ONC0000735, rgb286638 free base] | 66.76 |
| O=C1CN2Cc3c(ccc(Cl)c3Cl)N=C2N1 [ONC0004052, anagrelide hydrochloride] | 92.6 |
| CCCCCCCCCCCCCCOc1ccc(C(=O)O)o1 [ONC0001962, kd023] | 79.93 |
| Nc1nc(Cl)nc2c1ncn2[C@@H]1O[C@H](CO)[C@@H](O)[C@@H]1F [ONC0003106, clofarabine] | 80.77 |
| CC(C)C(=O)OCC(=O)[C@@]12O[C@H](C3CCCCC3)O[C@@H]1C[C@H]1[C@@H]3CCC4=CC(=O)C=C[C@]4(C)[C@H]3[C@@H](O)C[C@@]12C [ONC0005456, ciclesonide] | 95.02 |
| COc1ccc(-c2cc(=O)c3c(O)cc(O)cc3o2)cc1O [ONC0005003, diosmetin luteolin 4methyl ether] | 109.7 |
| CN1CC[C@H](c2c(O)cc(O)c3c(=O)cc(-c4ccccc4Cl)oc23)[C@H](O)C1 [ONC0002574, alvocidib] | 94.13 |
| Cc1cc(C)c(N(Cc2ccccc2)S(=O)(=O)c2ccc(OCCNC(=O)c3cc4ccccc4o3)cc2)c(C(=O)NO)c1 [ONC0001252, way170523] | 100.5 |
| Fc1ccc(C(OCCN2CCN(CCCc3ccccc3)CC2)c2ccc(F)cc2)cc1 [ONC0001594, vanoxerine] | 82.46 |
| CC(C)n1nc(C#Cc2ccccc2)c2c(N)ncnc21 [ONC0003074, spp86] | 114.9 |
| CC1(CN)Cc2ccccc2C1 [ONC0003802, org9768] | 50.43 |
| COC(=O)CC1CC(c2ccc(O)cc2)=NO1 (stereo not drawn) [ONC0001839, iso1] | 78.97 |
| CCc1cc(C(C)=O)c(O)cc1OCCCCCC(C)(C)c1nn[nH]n1 [ONC0000139, ly255283] | 63.1 |

| Structure (SMILES) | % viability [%] |
| --- | --- |
| O=C(NNC(=O)c1ccc(CNS(=O)(=O)c2ccc(F)c(Cl)c2)cc1)c1ccccc1 [ONC0002670, tcn201] | 98.19 |
| O=C(Cn1ccnc1[N+](=O)[O-])NCCO [ONC0002957, etanidazole] | 131.1 |
| C[C@@H](N)[C@H]1CC[C@H](C(=O)Nc2ccncc2)CC1 [ONC0000092, y27632] | 65.25 |
| N#Cc1c(N2C[C@@H]3NCCO[C@H]3C2)c(F)cc2c(=O)c(C(=O)O)cn(C3CC3)c12 [ONC0003702, 8cyano1cyclopropyl6fluoro74as7ashexahydropyrrolo34b14oxazin62hyl4oxo14dihydroquinoline3carboxylic acid] | 89.13 |
| C[C@H](NC(=O)c1sccc1OCc1ccc(Cl)cc1)c1ccccc1 [ONC0002601, as1949490] | 95.03 |
| O=c1cc(-c2ccc(O)cc2)oc2cc(O)cc(O)c12 [ONC0000851, apigenin] | 76.29 |
| O=C(NC(=O)c1c(F)cccc1F)Nc1cc(Cl)c(OC(F)(F)C(F)C(F)(F)F)cc1Cl (stereo not drawn) [ONC0003984, lufenuron] | 72.45 |
| CNCC(=O)c1ccc(O)c(O)c1 [ONC0005368, adrenalone hydrochloride] | 116.7 |
| Oc1cccc(Nc2ncc(F)c(Nc3cccc(O)c3)n2)c1 [ONC0001120, r112] | 54.84 |
| NC(=O)N1c2ccccc2C=Cc2ccccc21 [ONC0000771, carbamazepine] | 64.37 |
| COc1ccc2cc1Oc1cc3c(cc1OC)CC[N+](C)(C)[C@H]3Cc1ccc(cc1)Oc1c(OC)c(OC)cc3c1[C@@H](C2)[N+](C)(C)CC3 [ONC0003823, metocurine] | 60.87 |
| CC(C)n1nc(-c2cc3cc(O)ccc3[nH]2)c2c(N)ncnc21 [ONC0004935, torkinib pp242] | 79.77 |
| Cc1ncc[nH]1 [ONC0002814, 2methyl1himidazole] | 94.03 |
| Oc1ccc(CC2NCCc3cc(O)c(O)cc32)cc1 (stereo not drawn) [ONC0003672, 67dihydroxy14hydroxybenzyl1234tetrahydroisoquinoline hydrochloride] | 58.02 |
| Clc1ccc(C(Cn2ccnc2)OCc2c(Cl)cccc2Cl)c(Cl)c1 (stereo not drawn) [Isoconazole nitrate (Travogen), Isoconazole nitrate] | 2.362 |
| C=CC(=O)N1CCN(C(=O)CNc2cc(I)c(Cl)cc2O)CC1 [ONC0001008, krasg12c inhibitor 12] | 62.44 |
| N#Cc1ccccc1OCC(O)CNCCNC(=O)Nc1ccccc1 (stereo not drawn) [ONC0000133, ici89406] | 114 |
| NC(CO)(CO)CO [ONC0003339, tromethamine] | 75.13 |
| COc1ccc(C2CNC(=O)NC2)cc1O[C@H]1C[C@@H]2CC[C@H]1C2 [ONC0003814, atizoram] | 68.47 |
| C[C@H](N/C(=N/C#N)Nc1cccc2ncccc12)c1ccccc1 [ONC0002704, a804598] | 92.66 |
| COc1c(O[C@@H]2O[C@H](CO)[C@@H](O)[C@H](O)[C@H]2O)cc2c(c1OC)-c1ccc(SC)c(=O)cc1[C@@H](NC(C)=O)CC2 [ONC0002938, thiocolchicoside] | 63.55 |

| Structure (SMILES) | % viability [%] |
| --- | --- |
| CN(C)CCN(Cc1cccs1)c1ccccn1 [ONC0002820, methapyrilene hydrochloride] | 107.8 |
| CC(C)N(CCNC(=O)CN1CCCC1=O)C(C)C [ONC0004970, pramiracetam] | 88.61 |
| O=C(CCCCCCNC(=O)c1cnc(N(c2ccccc2)c2ccccc2)nc1)NO [ONC0004325, acy1215] | 107 |
| O=c1ncccn1[C@@H]1O[C@H](CO)[C@@H](O)[C@H]1O [ONC0003589, zebularine] | 90.24 |
| CC(=O)N[C@H]1CSSC[C@@H](C(N)=O)NC(=O)[C@H](C(C)C)NC(=O)[C@H](C)NC(=O)[C@H](Cc2c[nH]cn2)NC1=O [ONC0005515, adh1 trifluoroacetate] | 113.1 |
| O=C(O)Cc1ccc2c(c1)C(=O)c1ccccc1CO2 [ONC0003681, isoxepac] | 47.44 |
| Clc1cccc(-c2nnnn2Cc2cccnc2)c1Cl [ONC0000038, a438079] | 80.64 |
| Cc1nc2ccccc2n1Cc1ccc(Cl)cc1 [ONC0002435, chlormidazole] | 114.6 |
| OCCCNc1cc(-c2ccnc(Nc3cccc(Cl)c3)n2)ccn1 [cgp60474] | 9.09 |
| O=C(O)CCc1ccc(NCc2cccc3c2CCCN3CCOc2ccccc2)cc1F [ONC0000379, as2034178] | 102 |
| COc1cccc(-c2ccc(NC(=O)C3=C(C(=O)O)CCC3)c(F)c2)c1 [ONC0000849, vidofludimus] | 90.53 |
| CNC(=O)c1cc2c(cn1)[nH]c1ccccc12 [ONC0001365, fg7142] | 83.05 |
| Cc1cc(=O)oc2cc(O)ccc12 [ONC0005290, hymechrome] | 126.1 |
| C/C=C1/[C@H](O[C@@H]2O[C@H](CO)[C@@H](O)[C@H](O)[C@H]2O)OC=C(C(=O)OC)[C@H]1CC(=O)OCCc1ccc(O)c(O)c1 [ONC0004317, oleuropein] | 79.4 |
| CCCCNc1ncc(-c2ccc(CN3CCOCC3)cn2)c(N[C@H]2CC[C@H](O)CC2)n1 [ONC0004973, unc2250] | 62.2 |
| CCCN[C@H]1CCc2nc(N)sc2C1 [ONC0004678, pramipexole dihydrochloride monohydrate] | 97.76 |
| CC(C)(C)Cn1c(N)nc2ccc(-c3[nH]c(C(C)(C)C)nc3-c3ccc(F)cc3)nc21 [ONC0004578, ly2228820] | 70 |
| O=C(NC1CCN(CCCCC2(C(=O)NCC(F)(F)F)c3ccccc3-c3ccccc32)CC1)c1ccccc1-c1ccc(C(F)(F)F)cc1 [ONC0000828, lomitapide] | 68.32 |
| COc1ccc(C(=O)CC2(O)C(=O)Nc3c(Cl)ccc(Cl)c32)cc1 (stereo not drawn) [ONC0001202, yk4279] | 76.17 |
| O=C(NCc1ccccc1)OCCO [ONC0004040, buramate] | 78.81 |
| CSc1nc(NC2CCCC2)c([N+](=O)[O-])c(NC2CCCC2)n1 [ONC0000743, gs39783] | 53.67 |

Grouped by structure, those above with a nitro group on carbon (2)

| Structure (SMILES) | % viability [%] |
| --- | --- |
| O=C(Cn1ccnc1[N+](=O)[O-])NCCO [ONC0002957, etanidazole] | 131.1 |
| CSc1nc(NC2CCCC2)c([N+](=O)[O-])c(NC2CCCC2)n1 [ONC0000743, gs39783] | 53.67 |

Among those listed so far, these contain an aryl thioether with sulfur outside any ring.

| Structure (SMILES) | % viability [%] |
| --- | --- |
| COc1c(O[C@@H]2O[C@H](CO)[C@@H](O)[C@H](O)[C@H]2O)cc2c(c1OC)-c1ccc(SC)c(=O)cc1[C@@H](NC(C)=O)CC2 [ONC0002938, thiocolchicoside] | 63.55 |
| CSc1nc(NC2CCCC2)c([N+](=O)[O-])c(NC2CCCC2)n1 [ONC0000743, gs39783] | 53.67 |
